Test results published in patent publication US10946027B2, “Tianeptine oxalate salts and polymorphs” (Tonix Pharma Holdings Limited, priority 2016, dated 2021).
Values after ≈ are worked out from the molar mass of the structure shown. Read-outs that look alike come from different tables or passages of the source.

Key:
[1] = pH 4.5
[2] = physchem; details: thermodynamic from solid
[3] = not given; remark: listed apart in the source
[4] = 25° C., 60% RH, 1 day, crimped glass vial
[5] = 25° C., 60% RH, 1 day, open air
[6] = 25° C., 60% RH, 3 days, crimped glass vial
[7] = 25° C., 60% RH, 7 days, crimped glass vial
[8] = 30° C., 65% RH, 1 day, crimped glass vial
[9] = 30° C., 65% RH, 1 day, open air
[10] = 30° C., 65% RH, 3 days, crimped glass vial
[11] = 30° C., 65% RH, 7 days, crimped glass vial
[12] = 40° C., 75% RH, 1 day, crimped glass vial
[13] = 40° C., 75% RH, 1 day, open air
[14] = 40° C., 75% RH, 3 days, crimped glass vial
[15] = 40° C., 75% RH, 7 days, crimped glass vial
[16] = pH 1.2, simulated gastric fluid

| SMILES | solubility [1] [µg/mL] | water in the sample (KF) [4] [%] | water in the sample (KF) [5] [%] | water in the sample (KF) [6] [%] | water in the sample (KF) [7] [%] | water in the sample (KF) [8] [%] | water in the sample (KF) [9] [%] | water in the sample (KF) [10] [%] | water in the sample (KF) [11] [%] | water in the sample (KF) [12] [%] | water in the sample (KF) [13] [%] | water in the sample (KF) [14] [%] | water in the sample (KF) [15] [%] | water in the sample (KF) (Time 0) [%] | solubility [2, 16] [µg/mL] | solubility ([2]; pH 4.5, aqueous buffer) [µg/mL] | solubility ([2]; pH 6.8, aqueous buffer) [µg/mL] | also measured |
| --- | --- | --- | --- | --- | --- | --- | --- | --- | --- | --- | --- | --- | --- | --- | --- | --- | --- | --- |
| CN1c2ccccc2C(NCCCCCCC(=O)O)c2ccc(Cl)cc2S1(=O)=O (centres unmarked) [Tianeptine Sodium, tianeptine sodium, reference compound] | 2101 | 2.94 | 13.86 | 2.42 | 2.56 | 2.63 | 14.80 | 2.65 | 2.77 | 2.84 | 16.22 | 2.73 | 2.53 | 3.09 | 4640 | 3680 | 1770 | – |
| CN1c2ccccc2C(NCCCCCCC(=O)O)c2ccc(Cl)cc2S1(=O)=O (racemic) [Tianeptine Hemi-Oxalate Form A] | 313 (≈ 716 µM) | 0.34 | 0.35 | 0.18 | 0.28 | 0.27 | 0.28 | 0.16 | 0.30 | 0.30 | 0.06 | 0.16 | 0.20 | 0.47 | 702 (≈ 1610 µM) | 317 (≈ 725 µM) | 585 (≈ 1340 µM) | water in the sample (KF) (25° C., 60% RH, 3 days, open air): 0.28%; water in the sample (KF) (25° C., 60% RH, 7 days, open air): 0.22%; water in the sample (KF) (30° C., 65% RH, 3 days, open air): 0.18%; water in the sample (KF) (30° C., 65% RH, 7 days, open air): 0.30%; water in the sample (KF) (40° C., 75% RH, 3 days, open air): 0.30%; water in the sample (KF) (40° C., 75% RH, 7 days, open air): 0.17%; change of water content (after 7 days, in open air or in a crimped glass vial): practically unchanged; XRPD pattern after slurry experiments ([3]; different solvents or solvent mixtures, different temperature conditions): No significant modifications in the XRPD pattern; thermodynamic stability of the form ([3]; from melting point, slurry experiments and stability tests): the most thermodynamically stable form; crystal form after stability tests ([3]; temperature 25-60° C., relative humidity 0-75%): the crystal form did not |
